Data reported in patent US8771741B2, “In vivo photodynamic therapy of cancer via a near infrared agent encapsulated in calcium phosphate nanoparticles” (The Penn State Research Foundation, priority 2009, dated 2014).

System: bovine aortic endothelial cells (BAECs)
Assay: Staining of bovine aortic endothelial cells with and without cytochalasin-D
Assay type: cell-based
Conditions: untreated cells, about 1 μM overnight

Cy3 amidite [Cy3 Dye]
staining pattern of cells: specific staining of internal membranous organelles
